Measurements as given in paper PMC3297495.

By UniProt entry, the sequences of proteins in these tests, tags left out. Where a name states a change or a piece, a line headed by the entry shows the natural chain unless it says otherwise.
UniProt Q6L589: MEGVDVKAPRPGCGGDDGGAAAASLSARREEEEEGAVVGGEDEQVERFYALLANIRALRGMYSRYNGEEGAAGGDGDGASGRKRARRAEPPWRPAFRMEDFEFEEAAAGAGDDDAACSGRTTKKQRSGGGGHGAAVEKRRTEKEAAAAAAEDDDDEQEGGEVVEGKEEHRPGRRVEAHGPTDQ
UniProt Q5QM06: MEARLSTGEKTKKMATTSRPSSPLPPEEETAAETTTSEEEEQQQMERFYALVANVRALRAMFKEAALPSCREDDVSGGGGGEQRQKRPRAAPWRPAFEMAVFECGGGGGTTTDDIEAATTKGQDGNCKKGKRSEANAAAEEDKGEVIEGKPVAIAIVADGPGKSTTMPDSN
UniProt B7F924: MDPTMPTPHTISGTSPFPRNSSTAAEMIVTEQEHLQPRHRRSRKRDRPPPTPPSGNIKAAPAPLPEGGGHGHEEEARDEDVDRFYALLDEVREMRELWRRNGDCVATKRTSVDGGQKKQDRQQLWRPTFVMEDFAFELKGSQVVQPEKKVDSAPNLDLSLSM

Each substance was assayed against T1, LexA:NH1 (rice (Oryza sativa L)) (UniProt Q9FDY4) (assay: two-hybrid; yeast; NH1 fused to LexA as bait, NRR, its mutants and homologues fused to B42AD as prey; blue colour indicates a positive interaction).
T1 sequence: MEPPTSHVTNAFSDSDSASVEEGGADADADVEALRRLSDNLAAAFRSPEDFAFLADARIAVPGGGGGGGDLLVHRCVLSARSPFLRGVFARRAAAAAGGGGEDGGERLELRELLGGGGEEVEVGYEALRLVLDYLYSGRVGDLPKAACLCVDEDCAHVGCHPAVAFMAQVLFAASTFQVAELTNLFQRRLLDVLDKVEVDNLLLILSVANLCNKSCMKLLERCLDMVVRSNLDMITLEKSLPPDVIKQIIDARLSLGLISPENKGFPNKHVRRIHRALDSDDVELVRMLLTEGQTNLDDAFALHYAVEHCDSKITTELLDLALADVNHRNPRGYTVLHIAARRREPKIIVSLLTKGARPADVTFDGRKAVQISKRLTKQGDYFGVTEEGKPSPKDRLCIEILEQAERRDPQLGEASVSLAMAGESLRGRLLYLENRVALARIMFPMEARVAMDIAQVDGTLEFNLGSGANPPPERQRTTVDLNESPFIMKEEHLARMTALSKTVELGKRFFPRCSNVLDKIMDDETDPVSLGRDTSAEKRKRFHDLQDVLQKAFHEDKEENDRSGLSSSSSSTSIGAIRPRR

Row | binding | Substance
1 | binds | B42AD:RH1 (from UniProt Q6L589)
2 | binds weakly | B42AD:RH2 (from UniProt Q5QM06)
3 | binds | B42AD:RH3 (from UniProt B7F924)

No constants are given. Whether binding was seen depends on the method and setting. A result given as binding can be weak or reduced; the word gives no strength.
